# Measured values: the supplement of paper PMC12024529
# Where a name gives a salt, the structure may show the parent alone. Some of the results follow. Baselines shift from plate to plate; read single values as rough.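 The cells are HEK293 lines stably expressing B-domain-deleted factor VIII fused to Gaussia luciferase, either wild type or a misfolding-prone missense mutant. Each score is mean luminescence from triplicate wells minus the DMSO mean, divided by the DMSO standard deviation; a score of 2 or more counts as a hit, and low scores may reflect lower secretion or poorer cell viability.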
# Tested on: HEK293 WT BDD-FVIII-Gluc
# Test: secreted FVIII-Gluc luciferase Z-score vs DMSO control; higher = more FVIII-Gluc secretion
# Details: 5 µM; 24 h
row,Compound,secreted FVIII-Gluc luciferase Z-score
1,Cc1cccc(C)c1NC(=O)C1CCCCN1C (stereo unspecified) [Mepivacaine HCl],inactive: -1.33
2,N=C(N)NC(=N)N1CCOCC1 [Moroxydine],inactive: 0.215
3,O=C1O[C@H]([C@@H](O)CO)C([O-])=C1O.[Na+] [Sodium ascorbate],inactive: -0.522
4,CCCS(=O)(=O)Nc1ccc(F)c(C(=O)c2c[nH]c3ncc(-c4ccc(Cl)cc4)cc23)c1F [Vemurafenib (PLX4032)],inactive: 1.96
5,CCCCNc1cc(C(=O)O)cc(S(N)(=O)=O)c1Oc1ccccc1 [Bumetanide],inactive: 0.547
6,Cc1ccc(C(=O)c2cc(O)c(O)c([N+](=O)[O-])c2)cc1 [Tolcapone],inactive: -1.18
7,COc1cccc2c1C(=O)c1c(O)c3c(c(O)c1C2=O)C[C@@](O)(C(=O)CO)C[C@@H]3O[C@H]1C[C@H](N)[C@H](O)[C@H](C)O1 [Doxorubicin (Adriamycin)],inactive: -3.99
8,CC(C)(Oc1ccc(CCNC(=O)c2ccc(Cl)cc2)cc1)C(=O)O [Bezafibrate],active: 6.82
9,OCC(O)CN1CCN(c2ccccc2)CC1 (stereo unspecified) [Dropropizine],inactive: 0.542
10,CCOC(=O)C1=C(COCCN)NC(C)=C(C(=O)OC)C1c1ccccc1Cl (stereo unspecified) [Amlodipine besylate (Norvasc)],inactive: -2.39
11,CC(C(=O)O)c1ccc2c(c1)[nH]c1ccc(Cl)cc12 (stereo unspecified) [Carprofen],inactive: 0.121
12,CC(C)C[C@H](NC(=O)[C@H](CCc1ccccc1)NC(=O)CN1CCOCC1)C(=O)N[C@@H](Cc1ccccc1)C(=O)N[C@@H](CC(C)C)C(=O)[C@@]1(C)CO1 [Carfilzomib (PR-171)],inactive: -14.7
13,CCc1ccc(CCOc2ccc(CC3SC(=O)NC3=O)cc2)nc1 (stereo unspecified) [Pioglitazone hydrochloride (Actos)],inactive: -1.04
14,CCS(=O)(=O)CCn1c([N+](=O)[O-])cnc1C [tinidazole],inactive: -0.429
15,c1ccc2[nH]c(-c3cscn3)nc2c1 [Thiabendazole],inactive: -2.27
16,CCN(CC)CCNC(=O)c1c(C)[nH]c(/C=C2\C(=O)Nc3ccc(F)cc32)c1C [Sunitinib Malate (Sutent)],inactive: -2.34

# An excerpt from above in order of molar mass, high to low:
row,Compound,secreted FVIII-Gluc luciferase Z-score
8,CC(C)(Oc1ccc(CCNC(=O)c2ccc(Cl)cc2)cc1)C(=O)O [Bezafibrate],active: 6.82
11,CC(C(=O)O)c1ccc2c(c1)[nH]c1ccc(Cl)cc12 (stereo unspecified) [Carprofen],inactive: 0.121
2,N=C(N)NC(=N)N1CCOCC1 [Moroxydine],inactive: 0.215

# Following part

row,Compound,secreted FVIII-Gluc luciferase Z-score
1,Oc1c(Br)cc(Br)c2cccnc12 [Broxyquinoline],inactive: 1.31
2,Cc1cc(C(C)(C)C)cc(C)c1CC1=NCCN1 [Xylometazoline HCl],inactive: 0.659
3,CN(CCOc1ccc(CC2SC(=O)NC2=O)cc1)c1ccccn1 (stereo unspecified) [Rosiglitazone HCl],inactive: 1.01
4,CC(C)(C)NC(=O)[C@H]1CC[C@H]2[C@@H]3CC[C@H]4NC(=O)C=C[C@]4(C)[C@H]3CC[C@]12C [Finasteride],inactive: 1.64
5,CCC[C@@H]1C[C@@H](C(=O)N[C@@H]([C@H]2O[C@H](SC)[C@H](O)[C@@H](O)[C@H]2O)[C@@H](C)O)N(C)C1 [Lincomycin hydrochloride (Lincocin)],inactive: -0.75
6,CN1CCN(CCCN2c3ccccc3Sc3ccc(Cl)cc32)CC1 [Prochlorperazine Dimaleate],inactive: -0.582
7,CO/N=C(\C(=O)N[C@@H]1C(=O)N2C(C(=O)O)=C(CSC(=O)c3ccco3)CS[C@H]12)c1csc(N)n1 [Ceftiofur HCl],inactive: -0.572
8,O=C1c2ccccc2C(=O)C1c1ccccc1 [Phenindione (Rectadione)],inactive: -1.7
9,CCNC(=O)CCC/C=C\C[C@@H]1[C@@H](/C=C/[C@@H](O)CCc2ccccc2)[C@H](O)C[C@@H]1O [Bimatoprost],inactive: -3.09
10,COCCc1ccc(OCC(O)CNC(C)C)cc1 (stereo unspecified) [Metoprolol tartrate],inactive: -0.726
11,CCCNC(C)C(=O)Nc1ccccc1C (stereo unspecified) [Prilocaine],inactive: -1.04
12,C[C@H](Cc1cc2c(c(C(N)=O)c1)N(CCCO)CC2)NCCOc1ccccc1OCC(F)(F)F [Silodosin (Rapaflo)],inactive: -1.04
13,CSc1ccc2c(c1)N(CCC1CCCCN1C)c1ccccc1S2 (stereo unspecified) [Thioridazine HCl],inactive: -3.77
14,CCC(NC(C)C)C(O)c1ccc(O)c(O)c1 (stereo unspecified) [Isoetharine Mesylate],inactive: 0.85
15,CC(=O)Nc1ncc([N+](=O)[O-])s1 [Nithiamide],active: 2.04
